Reference: PMC7273913
These are yes or no findings as the source states them, for the method shown.

Molecular target: Human FANCL URD-RING (residues 109–375), wild type (human) (UniProt Q9NW38)
Experiment: SEC; Superdex 75 after MonoQ anion exchange (first peak); both purified

binding: no binding
B1: Human FANCL URD-RING (residues 109–375), wild type (domain or fragment, UniProt Q9NW38 109-375)
chain: QFYSSLIEEIGTLGWDKLVYADTCFSTIKLKAEDASGREHLITLKLKAKYPAESPDYFVDFPVPFCASWTPQSSLISIYSQFLAAIESLKAFWDVMDEIDEKTWVLEPEKPPRSATARRIALGNNVSINIEVDPRHPTMLPECFFLGADHVVKPLGIKLSRNIHLWDPENSVLQNLKDVLEIDFPARAILEKSDFTMDCGICYAYQLDGTIPDQVCDNSQCGQPFHQICLYEWLRGLLTSRQSFNIIFGECPYCSKPITLKMSGRKH
